In the experiment the target is T1, NRP2-TurboID construct (NRP2 fused to miniTurbo biotin ligase) (human) (UniProt O60462).
T1 sequence: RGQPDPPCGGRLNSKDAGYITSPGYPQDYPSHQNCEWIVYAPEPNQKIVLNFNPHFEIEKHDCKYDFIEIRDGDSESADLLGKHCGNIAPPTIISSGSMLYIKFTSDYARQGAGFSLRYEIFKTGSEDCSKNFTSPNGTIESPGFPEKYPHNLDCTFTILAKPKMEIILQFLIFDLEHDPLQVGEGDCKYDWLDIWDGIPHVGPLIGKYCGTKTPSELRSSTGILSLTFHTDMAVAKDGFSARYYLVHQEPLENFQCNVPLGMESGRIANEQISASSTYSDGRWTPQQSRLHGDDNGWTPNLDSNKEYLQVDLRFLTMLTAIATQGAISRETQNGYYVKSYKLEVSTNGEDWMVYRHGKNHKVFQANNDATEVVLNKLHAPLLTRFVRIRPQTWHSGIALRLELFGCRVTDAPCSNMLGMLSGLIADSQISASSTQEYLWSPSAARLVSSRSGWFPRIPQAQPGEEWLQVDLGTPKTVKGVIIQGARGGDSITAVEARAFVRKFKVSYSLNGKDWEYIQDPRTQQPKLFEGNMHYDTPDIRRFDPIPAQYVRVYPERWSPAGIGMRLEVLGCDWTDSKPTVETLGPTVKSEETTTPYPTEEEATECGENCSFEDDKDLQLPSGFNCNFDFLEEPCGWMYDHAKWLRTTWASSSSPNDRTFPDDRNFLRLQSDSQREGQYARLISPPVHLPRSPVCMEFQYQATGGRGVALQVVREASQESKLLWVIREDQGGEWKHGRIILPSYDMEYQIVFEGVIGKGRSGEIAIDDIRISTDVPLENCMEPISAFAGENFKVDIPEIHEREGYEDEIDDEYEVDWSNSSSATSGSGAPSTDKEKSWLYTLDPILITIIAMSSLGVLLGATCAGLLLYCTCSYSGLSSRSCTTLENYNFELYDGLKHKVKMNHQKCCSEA
Briefly: proximity labelling; T98G cells transfected with NRP2-miniTurbo for 48 h, 50 μM biotin for 10 min, streptavidin magnetic beads, immunoblot. On the technique in general: A western blot detects proteins with antibodies after separation by electrophoresis.

Amino acid sequences for entries named in this document (tags omitted). A change or cut given only in a name is not applied to a line headed by its entry. Residues count along the entry.
UniProt Q9UIW2, residues 27-1896: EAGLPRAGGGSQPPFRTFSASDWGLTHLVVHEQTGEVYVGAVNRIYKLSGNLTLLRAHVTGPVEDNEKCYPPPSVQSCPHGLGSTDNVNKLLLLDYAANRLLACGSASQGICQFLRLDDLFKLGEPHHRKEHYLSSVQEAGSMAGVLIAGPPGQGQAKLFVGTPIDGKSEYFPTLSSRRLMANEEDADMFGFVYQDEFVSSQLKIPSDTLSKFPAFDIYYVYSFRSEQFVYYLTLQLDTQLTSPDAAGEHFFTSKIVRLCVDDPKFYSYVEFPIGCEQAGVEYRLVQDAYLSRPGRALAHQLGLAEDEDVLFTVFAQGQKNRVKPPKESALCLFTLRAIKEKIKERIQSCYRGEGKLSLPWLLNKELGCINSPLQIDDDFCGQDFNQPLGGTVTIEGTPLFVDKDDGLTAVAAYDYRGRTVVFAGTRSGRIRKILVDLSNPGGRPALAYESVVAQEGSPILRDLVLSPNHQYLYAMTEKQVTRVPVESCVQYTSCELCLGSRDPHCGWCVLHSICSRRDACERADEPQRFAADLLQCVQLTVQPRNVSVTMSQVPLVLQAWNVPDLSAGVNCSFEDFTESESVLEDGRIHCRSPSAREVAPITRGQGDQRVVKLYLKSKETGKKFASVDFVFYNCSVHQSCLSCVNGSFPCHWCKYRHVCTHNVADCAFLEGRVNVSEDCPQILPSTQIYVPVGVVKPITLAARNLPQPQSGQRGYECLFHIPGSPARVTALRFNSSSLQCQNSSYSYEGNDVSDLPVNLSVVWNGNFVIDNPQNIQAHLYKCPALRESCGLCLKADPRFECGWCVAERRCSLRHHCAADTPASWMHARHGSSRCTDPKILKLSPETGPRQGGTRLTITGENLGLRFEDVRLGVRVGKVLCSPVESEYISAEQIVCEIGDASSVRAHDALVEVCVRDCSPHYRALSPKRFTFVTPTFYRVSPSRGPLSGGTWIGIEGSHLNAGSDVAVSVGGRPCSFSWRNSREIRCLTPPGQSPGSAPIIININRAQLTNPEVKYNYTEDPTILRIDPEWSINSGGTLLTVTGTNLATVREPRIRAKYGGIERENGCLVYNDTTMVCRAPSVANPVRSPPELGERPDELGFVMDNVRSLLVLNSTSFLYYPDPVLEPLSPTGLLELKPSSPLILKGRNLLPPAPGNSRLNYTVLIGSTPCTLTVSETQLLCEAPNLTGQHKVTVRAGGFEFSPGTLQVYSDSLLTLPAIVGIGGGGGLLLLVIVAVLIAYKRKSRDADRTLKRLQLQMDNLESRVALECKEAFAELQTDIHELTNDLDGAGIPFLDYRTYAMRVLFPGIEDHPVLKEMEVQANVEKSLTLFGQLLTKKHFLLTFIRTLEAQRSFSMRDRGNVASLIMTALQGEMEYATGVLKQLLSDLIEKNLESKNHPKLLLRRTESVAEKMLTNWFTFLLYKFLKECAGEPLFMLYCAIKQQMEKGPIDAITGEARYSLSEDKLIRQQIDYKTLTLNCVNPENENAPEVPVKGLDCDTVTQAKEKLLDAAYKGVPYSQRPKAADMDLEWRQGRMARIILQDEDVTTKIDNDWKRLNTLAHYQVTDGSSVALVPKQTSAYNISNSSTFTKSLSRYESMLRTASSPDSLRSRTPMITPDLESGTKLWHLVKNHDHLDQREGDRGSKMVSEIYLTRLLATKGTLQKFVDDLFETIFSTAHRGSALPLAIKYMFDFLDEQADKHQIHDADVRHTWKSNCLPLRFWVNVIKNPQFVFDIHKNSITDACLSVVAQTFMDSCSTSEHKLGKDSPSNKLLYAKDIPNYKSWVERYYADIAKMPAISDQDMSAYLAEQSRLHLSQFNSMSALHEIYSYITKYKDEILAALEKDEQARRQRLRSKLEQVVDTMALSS

These are yes or no findings as the source states them, for the method shown. Binding seen in cells or lysates may run through a third protein. A yes stands for co-enrichment or nearness to the bait. Other partners may have been found. Where a sequence is shown, tags or fusion partners need not be part of it.

For the substance “PLXNA1 (endogenous, T98G cells) (from UniProt Q9UIW2 27-1896) (receptor)”, the binding result is listed as “binds”.

The record behind these values is article PMC12669739.
